PubChem BioAssay AID1259283 – Sanger Institute, 2017
This is an unselected part of 794 deposited reagents. 14 of them (1.8%) count as active. 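Calls reflect only viability loss without drug; drug synergy does not enter the call.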 Viability is capped at 1. Not all columns of the deposit are shown. Not stated in the record: the amount of reagent, the time to read-out.

- Aim: 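Kinome-wide siRNA search for kinases acting with BYL719, cetuximab or trametinib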 (primary screen)
- System: HT115 colorectal cancer cells
- Knock-down reagent: siRNA pool against human genes
- Conditions: anchor drug given one day after siRNA: BYL719 at 1 µM, cetuximab at 5 µg/ml, trametinib at 10 nM, or DMSO vehicle alone
- Measurement: 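Per-drug synergy scores plus replicate-mean viability relative to non-targeting pool #2 wells, also expressed as a robust z-score based on control wells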
- Direction: robust z-score, knock-down alone: higher = more viable cells after knock-down; viability, DMSO vs non-targeting control: higher = more viable cells
- Units: viability, DMSO vs non-targeting control in fraction of control
- Active means: 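a gene counts as essential when its robust z-score with knock-down alone is below -3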
- Meaning of the calls: active = essential (z below -3, no drug); inactive = no change without drug

RBM10: robust z-score, knock-down alone = -1.07; viability, DMSO vs non-targeting control = 0.828; call = inactive
FGFR3: robust z-score, knock-down alone = 0.789; viability, DMSO vs non-targeting control = 1; call = inactive
EPHA4: robust z-score, knock-down alone = 0.417; viability, DMSO vs non-targeting control = 0.966; call = inactive
MAPK12: robust z-score, knock-down alone = 0.789; viability, DMSO vs non-targeting control = 1; call = inactive
PRAG1: robust z-score, knock-down alone = -1.58; viability, DMSO vs non-targeting control = 0.781; call = inactive
NME2: robust z-score, knock-down alone = -0.0238; viability, DMSO vs non-targeting control = 0.925; call = inactive
MYLK3: robust z-score, knock-down alone = 0.418; viability, DMSO vs non-targeting control = 0.966; call = inactive
CDKN1A: robust z-score, knock-down alone = 0.789; viability, DMSO vs non-targeting control = 1; call = inactive
COQ8B: robust z-score, knock-down alone = 0.789; viability, DMSO vs non-targeting control = 1; call = inactive
DBF4: robust z-score, knock-down alone = 0.789; viability, DMSO vs non-targeting control = 1; call = inactive
AURKA: robust z-score, knock-down alone = -2.78; viability, DMSO vs non-targeting control = 0.67; call = inactive
GRK4: robust z-score, knock-down alone = 0.186; viability, DMSO vs non-targeting control = 0.944; call = inactive
AK1: robust z-score, knock-down alone = 0.789; viability, DMSO vs non-targeting control = 1; call = inactive
PANK3: robust z-score, knock-down alone = 0.789; viability, DMSO vs non-targeting control = 1; call = inactive
FYN: robust z-score, knock-down alone = 0.0656; viability, DMSO vs non-targeting control = 0.933; call = inactive
MAP3K4: robust z-score, knock-down alone = 0.789; viability, DMSO vs non-targeting control = 1; call = inactive
LATS2: robust z-score, knock-down alone = 0.789; viability, DMSO vs non-targeting control = 1; call = inactive
RIPK1: robust z-score, knock-down alone = 0.212; viability, DMSO vs non-targeting control = 0.947; call = inactive
CPNE3: robust z-score, knock-down alone = -0.189; viability, DMSO vs non-targeting control = 0.91; call = inactive
ERN2: robust z-score, knock-down alone = 0.789; viability, DMSO vs non-targeting control = 1; call = inactive
HASPIN: robust z-score, knock-down alone = 0.714; viability, DMSO vs non-targeting control = 0.993; call = inactive
CDK2: robust z-score, knock-down alone = 0.789; viability, DMSO vs non-targeting control = 1; call = inactive
PGK2: robust z-score, knock-down alone = 0.427; viability, DMSO vs non-targeting control = 0.967; call = inactive
PSTK: robust z-score, knock-down alone = -0.434; viability, DMSO vs non-targeting control = 0.887; call = inactive
LMTK2: robust z-score, knock-down alone = 0.121; viability, DMSO vs non-targeting control = 0.938; call = inactive
RAF1: robust z-score, knock-down alone = 0.538; viability, DMSO vs non-targeting control = 0.977; call = inactive
IKBKG: robust z-score, knock-down alone = 0.187; viability, DMSO vs non-targeting control = 0.944; call = inactive
EPHA7: robust z-score, knock-down alone = -2.49; viability, DMSO vs non-targeting control = 0.697; call = inactive

Entries listed so far whose gene name starts with C or c:
CDKN1A: robust z-score, knock-down alone = 0.789; viability, DMSO vs non-targeting control = 1; call = inactive
COQ8B: robust z-score, knock-down alone = 0.789; viability, DMSO vs non-targeting control = 1; call = inactive
CPNE3: robust z-score, knock-down alone = -0.189; viability, DMSO vs non-targeting control = 0.91; call = inactive
CDK2: robust z-score, knock-down alone = 0.789; viability, DMSO vs non-targeting control = 1; call = inactive
